The supplement of paper PMC10849652
The other results are listed elsewhere or left out.

Protein sequences, listed by entry. Tags and fused reporters are not part of them. Lines headed by an entry give the natural chain unless they say otherwise; changes in a name come on top.
UniProt A8MT69: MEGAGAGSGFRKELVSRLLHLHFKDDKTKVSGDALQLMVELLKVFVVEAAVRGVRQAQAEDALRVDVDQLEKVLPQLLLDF
UniProt Q9BY43: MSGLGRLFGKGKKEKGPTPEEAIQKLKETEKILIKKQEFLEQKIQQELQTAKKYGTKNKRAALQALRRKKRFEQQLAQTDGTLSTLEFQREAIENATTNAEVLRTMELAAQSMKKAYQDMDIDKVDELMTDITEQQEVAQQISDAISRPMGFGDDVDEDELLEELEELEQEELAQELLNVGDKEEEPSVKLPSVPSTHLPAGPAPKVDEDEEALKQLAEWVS
UniProt P08603, whole entry, looked up: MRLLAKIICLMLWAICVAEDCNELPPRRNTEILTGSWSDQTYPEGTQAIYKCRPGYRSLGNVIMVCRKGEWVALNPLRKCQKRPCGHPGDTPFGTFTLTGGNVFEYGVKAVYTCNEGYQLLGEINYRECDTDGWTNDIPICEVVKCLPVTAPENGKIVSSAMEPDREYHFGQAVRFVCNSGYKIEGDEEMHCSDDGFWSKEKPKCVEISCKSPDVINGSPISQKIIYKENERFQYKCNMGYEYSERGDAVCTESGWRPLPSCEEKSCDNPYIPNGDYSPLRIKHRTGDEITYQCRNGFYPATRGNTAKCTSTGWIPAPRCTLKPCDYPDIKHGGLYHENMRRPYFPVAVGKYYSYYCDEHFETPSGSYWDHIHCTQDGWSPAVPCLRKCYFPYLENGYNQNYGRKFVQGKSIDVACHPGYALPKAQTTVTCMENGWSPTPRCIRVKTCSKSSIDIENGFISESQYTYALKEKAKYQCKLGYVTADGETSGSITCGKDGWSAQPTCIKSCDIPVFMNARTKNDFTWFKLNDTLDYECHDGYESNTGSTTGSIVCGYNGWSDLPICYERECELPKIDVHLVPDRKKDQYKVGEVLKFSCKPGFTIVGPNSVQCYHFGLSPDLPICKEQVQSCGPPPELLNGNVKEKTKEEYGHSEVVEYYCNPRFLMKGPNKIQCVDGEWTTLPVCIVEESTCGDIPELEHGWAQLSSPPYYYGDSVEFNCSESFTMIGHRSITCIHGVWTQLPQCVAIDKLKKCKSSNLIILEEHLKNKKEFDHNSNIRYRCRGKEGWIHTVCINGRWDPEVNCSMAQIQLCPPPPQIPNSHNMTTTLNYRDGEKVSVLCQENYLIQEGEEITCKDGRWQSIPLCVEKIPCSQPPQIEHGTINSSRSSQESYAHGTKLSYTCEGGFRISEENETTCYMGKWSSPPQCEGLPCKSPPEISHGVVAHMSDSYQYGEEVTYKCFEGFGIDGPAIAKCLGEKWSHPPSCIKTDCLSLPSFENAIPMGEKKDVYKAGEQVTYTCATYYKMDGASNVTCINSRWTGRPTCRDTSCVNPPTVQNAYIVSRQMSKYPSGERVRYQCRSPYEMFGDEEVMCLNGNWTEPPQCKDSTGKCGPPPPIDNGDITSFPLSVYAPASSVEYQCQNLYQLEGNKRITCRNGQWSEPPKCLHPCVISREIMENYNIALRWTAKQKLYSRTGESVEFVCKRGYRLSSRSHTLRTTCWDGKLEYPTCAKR
UniProt P23528, whole entry, looked up: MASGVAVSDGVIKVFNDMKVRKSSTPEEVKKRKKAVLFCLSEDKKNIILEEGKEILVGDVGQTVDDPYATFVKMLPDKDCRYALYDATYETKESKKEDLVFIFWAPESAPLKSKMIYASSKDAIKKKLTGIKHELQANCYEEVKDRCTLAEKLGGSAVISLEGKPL
UniProt Q9UQN3, whole entry, looked up: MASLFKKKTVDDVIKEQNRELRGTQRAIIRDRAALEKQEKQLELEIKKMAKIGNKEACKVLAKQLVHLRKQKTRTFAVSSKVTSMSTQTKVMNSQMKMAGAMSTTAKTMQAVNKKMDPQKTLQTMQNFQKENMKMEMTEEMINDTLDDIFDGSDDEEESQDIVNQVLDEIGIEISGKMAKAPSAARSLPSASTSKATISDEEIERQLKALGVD
UniProt Q9H5V8, whole entry, looked up: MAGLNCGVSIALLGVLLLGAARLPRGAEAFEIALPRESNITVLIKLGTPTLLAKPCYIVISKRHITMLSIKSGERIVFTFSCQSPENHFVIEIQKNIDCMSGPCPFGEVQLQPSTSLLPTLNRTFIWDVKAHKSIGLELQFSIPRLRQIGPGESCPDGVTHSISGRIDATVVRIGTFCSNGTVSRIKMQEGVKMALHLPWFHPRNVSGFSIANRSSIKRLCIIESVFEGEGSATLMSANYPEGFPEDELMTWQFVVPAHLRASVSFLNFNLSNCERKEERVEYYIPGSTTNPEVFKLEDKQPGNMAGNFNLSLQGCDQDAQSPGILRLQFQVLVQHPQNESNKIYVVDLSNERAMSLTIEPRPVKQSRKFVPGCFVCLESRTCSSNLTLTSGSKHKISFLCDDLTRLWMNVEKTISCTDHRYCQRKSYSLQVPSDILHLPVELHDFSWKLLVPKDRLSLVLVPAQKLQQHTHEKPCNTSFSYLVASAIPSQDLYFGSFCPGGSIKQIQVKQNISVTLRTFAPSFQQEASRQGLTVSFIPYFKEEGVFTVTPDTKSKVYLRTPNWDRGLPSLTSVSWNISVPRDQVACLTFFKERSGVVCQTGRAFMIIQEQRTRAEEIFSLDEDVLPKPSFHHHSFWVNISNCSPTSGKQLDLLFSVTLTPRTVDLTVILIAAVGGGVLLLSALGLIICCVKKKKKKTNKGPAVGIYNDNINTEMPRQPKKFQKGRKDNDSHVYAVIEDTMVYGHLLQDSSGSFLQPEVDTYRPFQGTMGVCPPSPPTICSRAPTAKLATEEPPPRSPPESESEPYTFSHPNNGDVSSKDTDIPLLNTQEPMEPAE
UniProt Q96FF9: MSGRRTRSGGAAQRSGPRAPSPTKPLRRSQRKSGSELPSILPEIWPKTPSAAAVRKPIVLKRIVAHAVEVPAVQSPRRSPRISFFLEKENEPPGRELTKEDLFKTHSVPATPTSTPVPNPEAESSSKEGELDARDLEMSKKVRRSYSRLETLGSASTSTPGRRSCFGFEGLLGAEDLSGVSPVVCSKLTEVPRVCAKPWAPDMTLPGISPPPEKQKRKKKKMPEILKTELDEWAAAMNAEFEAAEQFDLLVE
UniProt Q9NZZ3: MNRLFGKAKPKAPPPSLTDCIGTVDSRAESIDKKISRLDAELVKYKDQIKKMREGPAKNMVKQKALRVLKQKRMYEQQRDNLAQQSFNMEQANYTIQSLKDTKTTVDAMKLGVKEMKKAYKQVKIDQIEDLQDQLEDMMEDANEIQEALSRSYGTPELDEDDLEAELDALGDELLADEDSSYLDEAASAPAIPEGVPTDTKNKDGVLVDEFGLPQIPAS
UniProt Q9UKY7: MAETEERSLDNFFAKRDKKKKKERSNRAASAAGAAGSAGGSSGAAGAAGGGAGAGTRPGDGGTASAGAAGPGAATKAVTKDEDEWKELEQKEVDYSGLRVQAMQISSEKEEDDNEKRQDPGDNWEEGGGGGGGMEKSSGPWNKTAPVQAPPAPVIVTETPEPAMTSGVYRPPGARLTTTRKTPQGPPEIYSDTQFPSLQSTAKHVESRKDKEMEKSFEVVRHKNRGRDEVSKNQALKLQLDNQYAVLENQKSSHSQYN
UniProt Q9NX63: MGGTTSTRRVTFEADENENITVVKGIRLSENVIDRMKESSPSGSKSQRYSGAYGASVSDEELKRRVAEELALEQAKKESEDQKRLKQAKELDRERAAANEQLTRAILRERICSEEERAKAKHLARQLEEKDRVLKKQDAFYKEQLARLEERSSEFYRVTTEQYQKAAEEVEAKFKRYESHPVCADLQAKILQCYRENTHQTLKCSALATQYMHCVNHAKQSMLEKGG
UniProt O96017, whole entry, looked up: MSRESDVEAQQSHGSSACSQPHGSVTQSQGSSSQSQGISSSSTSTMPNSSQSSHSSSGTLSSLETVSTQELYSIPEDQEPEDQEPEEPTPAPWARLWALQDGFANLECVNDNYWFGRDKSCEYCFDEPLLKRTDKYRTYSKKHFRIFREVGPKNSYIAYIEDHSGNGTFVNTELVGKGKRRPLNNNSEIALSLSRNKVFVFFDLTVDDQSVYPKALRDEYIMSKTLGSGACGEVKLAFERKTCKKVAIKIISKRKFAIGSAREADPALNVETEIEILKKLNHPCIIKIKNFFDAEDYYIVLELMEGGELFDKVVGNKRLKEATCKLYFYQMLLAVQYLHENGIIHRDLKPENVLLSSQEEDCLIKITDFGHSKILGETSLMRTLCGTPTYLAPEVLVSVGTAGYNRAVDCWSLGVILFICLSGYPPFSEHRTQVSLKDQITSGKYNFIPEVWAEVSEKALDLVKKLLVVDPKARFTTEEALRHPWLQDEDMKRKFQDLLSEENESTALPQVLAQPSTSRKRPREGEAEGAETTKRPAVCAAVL
UniProt Q9Y259: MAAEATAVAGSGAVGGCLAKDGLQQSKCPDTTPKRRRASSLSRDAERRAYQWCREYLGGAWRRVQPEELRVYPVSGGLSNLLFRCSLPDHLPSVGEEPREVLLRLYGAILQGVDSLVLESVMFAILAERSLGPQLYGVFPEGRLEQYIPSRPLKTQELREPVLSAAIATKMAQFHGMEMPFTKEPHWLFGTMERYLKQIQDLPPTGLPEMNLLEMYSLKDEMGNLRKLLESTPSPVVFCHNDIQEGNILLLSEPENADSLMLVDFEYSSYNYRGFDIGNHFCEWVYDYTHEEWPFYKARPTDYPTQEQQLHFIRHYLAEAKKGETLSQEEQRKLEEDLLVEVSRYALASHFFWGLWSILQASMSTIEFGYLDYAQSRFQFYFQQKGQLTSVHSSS
UniProt O95674: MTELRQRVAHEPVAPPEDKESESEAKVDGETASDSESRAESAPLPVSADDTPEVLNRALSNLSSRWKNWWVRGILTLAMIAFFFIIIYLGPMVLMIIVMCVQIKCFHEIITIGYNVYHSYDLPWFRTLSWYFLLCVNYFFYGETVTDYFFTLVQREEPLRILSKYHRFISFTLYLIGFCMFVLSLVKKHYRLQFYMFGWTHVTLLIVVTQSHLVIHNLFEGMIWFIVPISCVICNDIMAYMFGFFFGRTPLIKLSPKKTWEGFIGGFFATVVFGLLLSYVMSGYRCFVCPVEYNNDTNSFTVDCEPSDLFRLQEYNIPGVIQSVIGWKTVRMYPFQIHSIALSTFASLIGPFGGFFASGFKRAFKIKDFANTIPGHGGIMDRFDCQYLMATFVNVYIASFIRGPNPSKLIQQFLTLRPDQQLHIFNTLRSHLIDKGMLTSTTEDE
UniProt Q99618: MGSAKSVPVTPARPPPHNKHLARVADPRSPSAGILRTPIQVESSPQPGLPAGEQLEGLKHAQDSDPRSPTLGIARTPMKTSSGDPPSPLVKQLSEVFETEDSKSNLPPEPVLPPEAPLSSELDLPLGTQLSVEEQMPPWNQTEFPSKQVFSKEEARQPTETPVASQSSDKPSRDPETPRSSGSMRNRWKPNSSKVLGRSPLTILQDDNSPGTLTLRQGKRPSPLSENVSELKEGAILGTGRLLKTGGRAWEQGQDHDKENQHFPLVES

Key:
Assay in all cases: log2 fold change, soluble protein after heating vs DMSO (PISA); higher = thermal stabilisation; K562 cells, 10 uM, 30 min; active = over 0.2 and 3.5 SD of the protein, either way, in both replicates (recomputed)
[1] = compound: CS(=O)(=O)c1ccc(-c2cnc(N)c(C(=O)Nc3ccccc3)n2)cc1
Outline: (§1)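 K562 cells at 2×10^6 cells/mL were exposed to 10 μM compound for 30 min, then aliquots were heated for 3 min across 48°C-58°C, pooled, and extracted in PBS containing 0.5% NP-40 at 4°C. The supernatant after 21,000xg for 90 min was taken as soluble protein and measured by TMTpro 16plex LC-MS/MS with channel sums equalised. Thermal stability is reported relative to control samples, with values from duplicates. Fold changes are given on a log2 scale.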

crizotinib = compound: C[C@@H](Oc1cc(-c2cnn(C3CCNCC3)c2)cnc1N)c1c(Cl)ccc(F)c1Cl [crizotinib]
Outline: as §1

[2] = compound: C[C@@H]1COCCN1C2=NC(=NC(=C2)C3(CC3)S(=O)(=O)C)C4=C5C=CNC5=CC=C4
Outline: as §1

[3] = compound: C[C@H](C1=CC=C(C=C1)C(=O)NC2=C3C=CNC3=NC=C2)N
Outline: as §1

duvelisib = compound: C[C@H](Nc1ncnc2nc[nH]c12)c1cc2cccc(Cl)c2c(=O)n1-c1ccccc1 [duvelisib]
Outline: as §1

gandotinib = compound: Cc1cc(Nc2cc(CN3CCOCC3)c3nc(C)c(Cc4ccc(Cl)cc4F)n3n2)n[nH]1 [gandotinib]
Outline: as §1

tozasertib = compound: Cc1cc(Nc2cc(N3CCN(C)CC3)nc(Sc3ccc(NC(=O)C4CC4)cc3)n2)n[nH]1 [tozasertib]
Outline: as §1

[4] = compound: Cc1cc(SCc2sc(-c3ccc(C(F)(F)F)cc3)nc2C)ccc1OCC(=O)O
Outline: as §1

doramapimod = compound: Cc1ccc(-n2nc(C(C)(C)C)cc2NC(=O)Nc2ccc(OCCN3CCOCC3)c3ccccc23)cc1 [doramapimod]
Outline: as §1

ispinesib = compound: Cc1ccc(C(=O)N(CCCN)[C@@H](c2nc3cc(Cl)ccc3c(=O)n2Cc2ccccc2)C(C)C)cc1 [ispinesib]
Outline: as §1

bafetinib = compound: Cc1ccc(NC(=O)c2ccc(CN3CC[C@H](N(C)C)C3)c(C(F)(F)F)c2)cc1Nc1nccc(-c2cncnc2)n1 [bafetinib]
Outline: as §1

[5] = compound: Cc1cccc(CC(=O)N2CCc3c2ccc(-c2cn(C)c4ncnc(N)c24)c3F)n1
Outline: as §1

nilotinib = compound: Cc1cn(-c2cc(NC(=O)c3ccc(C)c(Nc4nccc(-c5cccnc5)n4)c3)cc(C(F)(F)F)c2)cn1 [nilotinib]
Outline: as §1

[6] = compound: Cc1nc(Nc2n[nH]c3c2CN(C(=O)N[C@H](CN(C)C)c2ccccc2)C3(C)C)c2sccc2n1
Outline: as §1

dasatinib = compound: Cc1nc(Nc2ncc(C(=O)Nc3c(C)cccc3Cl)s2)cc(N2CCN(CCO)CC2)n1 [dasatinib]
Outline: as §1

[7] = compound: Cc1ncc(-c2ccnc(Nc3ccc(S(C)(=O)=O)cc3)n2)n1C(C)C
Outline: as §1

[8] = compound: Cn1cc(-c2ccc3c(c2)CCN3C(=O)Cc2cccc(C(F)(F)F)c2)c2c(N)ncnc21
Outline: as §1

[9] = compound: Cn1cc(-c2ccc3nnc(C(F)(F)c4ccc5ncccc5c4)n3n2)cn1
Outline: as §1

tipifarnib = compound: Cn1cncc1[C@@](N)(c1ccc(Cl)cc1)c1ccc2c(c1)c(-c1cccc(Cl)c1)cc(=O)n2C [tipifarnib]
Outline: as §1

mubritinib = compound: FC(F)(F)c1ccc(/C=C/c2nc(COc3ccc(CCCCn4ccnn4)cc3)co2)cc1 [mubritinib]
Outline: as §1

Measured: log2 fold change

CENPX (UniProt A8MT69)
inactive: [1] 0.007

CHD6 (UniProt Q8TD26)
inactive: [1] -0.24 | crizotinib 0.16 | [2] 0.014 | [3] -0.233 | duvelisib -0.528 | gandotinib 0 | tozasertib 0.016 | [4] -0.034 | doramapimod -0.136 | ispinesib 0.001 | bafetinib -0.038 | [5] -0.33 | nilotinib 0.168 | [6] 0.053 | dasatinib 0.057 | [7] 0.335 | [8] 0.218 | [9] 0.049 | tipifarnib 0.054 | mubritinib -0.396

CENPF (UniProt P49454)
inactive: [1] -0.014 | crizotinib 0.043 | [2] -0.105 | [3] 0.084 | duvelisib -0.079 | gandotinib 0.012 | tozasertib 0.091 | [4] -0.059 | doramapimod 0.101 | ispinesib -0.001 | bafetinib -0.043 | [5] -0.004 | nilotinib 0.019 | [6] 0.013 | dasatinib 0.058 | [7] -0.161 | [8] -0.122 | [9] -0.065 | tipifarnib 0.142 | mubritinib -0.012

CHMP4A isoform 2 (UniProt Q9BY43)
inactive: [1] -0.031 | crizotinib -0.031 | [2] 0.018 | [3] 0.038 | duvelisib 0.017 | gandotinib 0.012 | tozasertib -0.098 | [4] -0.025 | doramapimod 0.02 | ispinesib -0.025 | bafetinib -0.023 | [5] -0.062 | nilotinib 0.01 | [6] 0.021 | dasatinib 0.033 | [7] -0.008 | [8] -0.005 | [9] -0.03 | tipifarnib 0.033 | mubritinib 0.06

CFH (UniProt P08603)
inactive: [1] -0.043 | crizotinib 0.012 | [2] -0.066 | [3] 0.009 | duvelisib 0.039 | gandotinib 0.067 | tozasertib -0.015 | [4] -0.032 | doramapimod 0.1 | ispinesib 0.107 | bafetinib 0.06 | [5] 0.03 | nilotinib 0.011 | [6] 0.161 | dasatinib 0.003 | [7] 0.065 | [8] -0.038 | [9] -0.091 | tipifarnib 0.102 | mubritinib 0.185

2 neighbouring records from above:
CHMP4A isoform 2 (UniProt Q9BY43)
inactive: [1] -0.031 | crizotinib -0.031 | [2] 0.018 | [3] 0.038 | duvelisib 0.017 | gandotinib 0.012 | tozasertib -0.098 | [4] -0.025 | doramapimod 0.02 | ispinesib -0.025 | bafetinib -0.023 | [5] -0.062 | nilotinib 0.01 | [6] 0.021 | dasatinib 0.033 | [7] -0.008 | [8] -0.005 | [9] -0.03 | tipifarnib 0.033 | mubritinib 0.06

CFH (UniProt P08603)
inactive: [1] -0.043 | crizotinib 0.012 | [2] -0.066 | [3] 0.009 | duvelisib 0.039 | gandotinib 0.067 | tozasertib -0.015 | [4] -0.032 | doramapimod 0.1 | ispinesib 0.107 | bafetinib 0.06 | [5] 0.03 | nilotinib 0.011 | [6] 0.161 | dasatinib 0.003 | [7] 0.065 | [8] -0.038 | [9] -0.091 | tipifarnib 0.102 | mubritinib 0.185

More entries follow:

CFL1 (UniProt P23528)
inactive: [1] -0.01 | crizotinib 0.046 | [2] 0.015 | [3] -0.189 | duvelisib -0.025 | gandotinib -0.038 | tozasertib 0.086 | [4] -0.001 | doramapimod -0.004 | ispinesib 0.118 | bafetinib -0.027 | [5] 0.02 | nilotinib 0.067 | [6] -0.006 | dasatinib 0.066 | [7] 0.022 | [8] 0.025 | [9] -0.015 | tipifarnib -0.084 | mubritinib 0.062

CHMP2B (UniProt Q9UQN3)
inactive: [1] -0.01 | crizotinib -0.096 | [2] 0 | [3] -0.03 | duvelisib 0.012 | gandotinib 0.019 | tozasertib -0.01 | [4] -0.015 | doramapimod -0.015 | ispinesib -0.058 | bafetinib -0.111 | [5] 0.005 | nilotinib 0.033 | [6] -0.002 | dasatinib 0.014 | [7] -0.043 | [8] 0.006 | [9] 0.044 | tipifarnib -0.005 | mubritinib 0.047

CDCP1 (UniProt Q9H5V8)
inactive: [1] 0.032 | crizotinib 0.09 | [2] 0.005 | [3] -0.049 | duvelisib 0.032 | gandotinib -0.048 | tozasertib 0.039 | [4] -0.024 | doramapimod 0 | ispinesib 0.036 | bafetinib 0.015 | [5] 0.011 | nilotinib 0.016 | [6] -0.014 | dasatinib 0.03 | [7] 0.035 | [8] 0.035 | [9] -0.047 | tipifarnib 0.032 | mubritinib 0.102

CDCA5 (UniProt Q96FF9)
inactive: [1] -0.065 | crizotinib 0.066 | [2] 0.129 | [3] -0.06 | duvelisib -0.069 | gandotinib -0.102 | tozasertib -0.033 | [4] 0.024 | doramapimod -0.01 | ispinesib -0.05 | bafetinib 0.072 | [5] -0.027 | nilotinib 0.102 | [6] -0.176 | dasatinib 0.081 | [7] -0.006 | [8] -0.035 | [9] -0.093 | tipifarnib 0.034 | mubritinib -0.009

CHMP5 (UniProt Q9NZZ3)
inactive: [1] 0.011 | crizotinib 0.01 | [2] 0.053 | [3] -0.015 | duvelisib 0.016 | gandotinib 0.009 | tozasertib -0.032 | [4] -0.015 | doramapimod -0.051 | ispinesib 0.003 | bafetinib -0.113 | [5] -0.052 | nilotinib 0.017 | [6] -0.006 | dasatinib 0.094 | [7] -0.024 | [8] -0.008 | [9] 0.066 | tipifarnib 0.011 | mubritinib 0.053

CDV3 (UniProt Q9UKY7)
inactive: [1] -0.029 | crizotinib -0.007 | [2] 0.002 | [3] -0.062 | duvelisib 0.017 | gandotinib -0.088 | tozasertib -0.011 | [4] -0.051 | doramapimod 0.053 | ispinesib 0.028 | bafetinib 0.003 | [5] -0.044 | nilotinib 0.024 | [6] 0.01 | dasatinib 0.031 | [7] -0.008 | [8] 0.035 | [9] 0.029 | tipifarnib 0.044 | mubritinib 0.032

CDC73 (UniProt Q6P1J9)
inactive: [1] 0.136 | crizotinib 0.183 | [2] -0.06 | [3] -0.093 | duvelisib -0.012 | gandotinib 0.131 | tozasertib -0.02 | [4] -0.011 | doramapimod -0.002 | ispinesib -0.074 | bafetinib 0.008 | [5] -0.366 | nilotinib -0.206 | [6] -0.106 | dasatinib -0.039 | [7] -0.053 | [8] -0.393 | [9] -0.037 | tipifarnib -0.08 | mubritinib -0.139

CHCHD3 (UniProt Q9NX63)
inactive: [1] 0.009 | crizotinib -0.01 | [2] -0.011 | [3] -0.047 | duvelisib 0.058 | gandotinib -0.019 | tozasertib 0.034 | [4] 0.016 | doramapimod 0.006 | ispinesib -0.041 | bafetinib -0.057 | [5] -0.014 | nilotinib -0.016 | [6] 0.022 | dasatinib 0.012 | [7] -0.008 | [8] 0.042 | [9] 0.037 | tipifarnib 0.02 | mubritinib 0.024

CHEK2 isoform 9 (UniProt O96017)
inactive: [1] -0.025 | crizotinib -0.015 | [2] 0.057 | [3] -0.06 | duvelisib 0.007 | gandotinib -0.065 | tozasertib -0.056 | [4] -0.026 | doramapimod -0.008 | ispinesib 0.002 | bafetinib -0.034 | [5] 0.079 | nilotinib -0.019 | [6] -0.175 | dasatinib -0.006 | [7] -0.059 | [8] 0.054 | [9] -0.083 | tipifarnib 0.065 | mubritinib 0.057

CHKB (UniProt Q9Y259)
inactive: [1] -0.018 | crizotinib 0.056 | [2] 0.083 | [3] 0.016 | duvelisib 0.097 | gandotinib -0.113 | tozasertib -0.1 | [4] 0 | doramapimod 0.037 | ispinesib 0.049 | bafetinib -0.087 | [5] -0.141 | nilotinib 0.096 | [6] -0.142 | dasatinib 0.032 | [7] 0.029 | [8] 0.131 | [9] 0.015 | tipifarnib -0.008 | mubritinib 0.061

CDS2 (UniProt O95674)
inactive: [1] 0.008 | crizotinib 0.02 | [2] -0.018 | [3] 0.04 | duvelisib 0.074 | gandotinib -0.047 | tozasertib 0.045 | [4] 0.023 | doramapimod 0.027 | ispinesib 0.006 | bafetinib -0.068 | [5] 0.008 | nilotinib 0.022 | [6] -0.049 | dasatinib 0 | [7] 0.002 | [8] 0.016 | [9] 0.002 | tipifarnib 0 | mubritinib 0.033

CDCA3 (UniProt Q99618)
inactive: [1] 0.028 | crizotinib 0.034 | [2] 0.063 | [3] -0.043 | duvelisib 0.043 | gandotinib 0.011 | tozasertib -0.042 | [4] -0.069 | doramapimod -0.016 | ispinesib -0.044 | bafetinib -0.057 | [5] -0.074 | nilotinib 0.03 | [6] 0.001 | dasatinib -0.004 | [7] 0.003 | [8] 0.054 | [9] 0.007 | tipifarnib 0.022 | mubritinib 0.025
